This is an account of results in the supplement of paper PMC6411743.

± gives the standard deviation of the averaged measurements. This is a selection; strong and weak results do not stand in their true shares.

Experiment in all cases: NP40-soluble protein abundance relative to vehicle (solubility fold change) (ratio); higher = more soluble protein in presence of ATP
The target of assay [1] is T1, UniProt Q5T0F9 and related entries.
T1 sequence (whole entry): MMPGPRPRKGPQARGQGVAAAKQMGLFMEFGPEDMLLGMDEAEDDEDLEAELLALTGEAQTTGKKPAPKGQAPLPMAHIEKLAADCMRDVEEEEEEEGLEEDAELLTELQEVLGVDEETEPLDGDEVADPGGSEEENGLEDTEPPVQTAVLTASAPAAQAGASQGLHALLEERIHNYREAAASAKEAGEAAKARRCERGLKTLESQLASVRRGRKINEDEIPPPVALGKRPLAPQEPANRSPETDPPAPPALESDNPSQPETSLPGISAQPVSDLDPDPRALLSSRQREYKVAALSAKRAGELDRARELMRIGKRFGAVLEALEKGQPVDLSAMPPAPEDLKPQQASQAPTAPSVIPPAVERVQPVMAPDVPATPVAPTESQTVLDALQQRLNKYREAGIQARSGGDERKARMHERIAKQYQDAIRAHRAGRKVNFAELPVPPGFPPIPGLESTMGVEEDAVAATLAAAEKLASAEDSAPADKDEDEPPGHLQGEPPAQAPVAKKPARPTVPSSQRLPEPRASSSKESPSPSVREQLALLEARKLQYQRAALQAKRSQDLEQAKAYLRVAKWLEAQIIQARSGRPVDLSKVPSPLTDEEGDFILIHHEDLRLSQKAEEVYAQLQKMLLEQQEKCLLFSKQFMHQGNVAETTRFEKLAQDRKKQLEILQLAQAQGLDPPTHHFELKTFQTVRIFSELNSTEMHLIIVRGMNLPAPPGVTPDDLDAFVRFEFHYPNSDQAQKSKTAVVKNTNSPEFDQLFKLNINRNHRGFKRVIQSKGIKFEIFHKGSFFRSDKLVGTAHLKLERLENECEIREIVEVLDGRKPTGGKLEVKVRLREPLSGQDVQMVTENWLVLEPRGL
The gist of the method: (§1)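 In three independent experiments, Jurkat crude lysate made by Dounce homogenisation was treated for 10 min at room temperature and then 3 min at 37 °C with eight concentrations ranging from 0.1 to 10 mM. It was then solubilised with 0.8% NP40 plus benzonase for 60 min at 4 °C and ultracentrifuged. The supernatant was TMT-labelled for LC-MS/MS, and each value is the fold change against the detergent-processed vehicle for the same replicate, using vsn-normalised intensities.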

A further assay addresses T2, UniProt Q5VST6.
T2 sequence (whole entry): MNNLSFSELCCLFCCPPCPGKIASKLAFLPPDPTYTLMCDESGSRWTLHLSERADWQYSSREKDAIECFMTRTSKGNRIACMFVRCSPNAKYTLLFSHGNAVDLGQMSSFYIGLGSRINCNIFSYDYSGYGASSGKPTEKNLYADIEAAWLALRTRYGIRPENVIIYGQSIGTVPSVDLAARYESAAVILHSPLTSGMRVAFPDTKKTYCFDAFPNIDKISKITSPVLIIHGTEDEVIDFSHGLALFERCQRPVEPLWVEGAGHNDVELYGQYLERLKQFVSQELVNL
The procedure, abridged: as §1

In another assay the target is T3, UniProt Q5W0B1.
T3 sequence (whole entry): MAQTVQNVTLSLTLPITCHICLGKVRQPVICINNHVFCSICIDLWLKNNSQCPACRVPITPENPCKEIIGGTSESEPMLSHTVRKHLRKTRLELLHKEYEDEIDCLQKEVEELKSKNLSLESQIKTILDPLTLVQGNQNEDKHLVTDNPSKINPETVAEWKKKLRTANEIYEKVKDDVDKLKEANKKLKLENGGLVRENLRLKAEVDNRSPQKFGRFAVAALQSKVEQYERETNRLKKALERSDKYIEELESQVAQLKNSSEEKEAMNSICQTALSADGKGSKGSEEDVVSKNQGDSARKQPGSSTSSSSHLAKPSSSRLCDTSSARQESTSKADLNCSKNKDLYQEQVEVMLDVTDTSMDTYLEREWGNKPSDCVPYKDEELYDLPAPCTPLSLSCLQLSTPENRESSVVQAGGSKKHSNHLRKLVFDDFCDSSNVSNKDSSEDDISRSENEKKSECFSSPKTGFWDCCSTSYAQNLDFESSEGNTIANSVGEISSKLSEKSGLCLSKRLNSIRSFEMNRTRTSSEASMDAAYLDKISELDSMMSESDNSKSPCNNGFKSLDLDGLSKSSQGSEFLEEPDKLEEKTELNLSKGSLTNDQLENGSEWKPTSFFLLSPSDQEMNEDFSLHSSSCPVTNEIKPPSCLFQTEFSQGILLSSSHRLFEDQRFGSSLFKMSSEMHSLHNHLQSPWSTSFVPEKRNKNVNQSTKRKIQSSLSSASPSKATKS
The procedure, abridged: as §1

In a further assay the target is T4, UniProt Q68CQ4.
T4 sequence (whole entry): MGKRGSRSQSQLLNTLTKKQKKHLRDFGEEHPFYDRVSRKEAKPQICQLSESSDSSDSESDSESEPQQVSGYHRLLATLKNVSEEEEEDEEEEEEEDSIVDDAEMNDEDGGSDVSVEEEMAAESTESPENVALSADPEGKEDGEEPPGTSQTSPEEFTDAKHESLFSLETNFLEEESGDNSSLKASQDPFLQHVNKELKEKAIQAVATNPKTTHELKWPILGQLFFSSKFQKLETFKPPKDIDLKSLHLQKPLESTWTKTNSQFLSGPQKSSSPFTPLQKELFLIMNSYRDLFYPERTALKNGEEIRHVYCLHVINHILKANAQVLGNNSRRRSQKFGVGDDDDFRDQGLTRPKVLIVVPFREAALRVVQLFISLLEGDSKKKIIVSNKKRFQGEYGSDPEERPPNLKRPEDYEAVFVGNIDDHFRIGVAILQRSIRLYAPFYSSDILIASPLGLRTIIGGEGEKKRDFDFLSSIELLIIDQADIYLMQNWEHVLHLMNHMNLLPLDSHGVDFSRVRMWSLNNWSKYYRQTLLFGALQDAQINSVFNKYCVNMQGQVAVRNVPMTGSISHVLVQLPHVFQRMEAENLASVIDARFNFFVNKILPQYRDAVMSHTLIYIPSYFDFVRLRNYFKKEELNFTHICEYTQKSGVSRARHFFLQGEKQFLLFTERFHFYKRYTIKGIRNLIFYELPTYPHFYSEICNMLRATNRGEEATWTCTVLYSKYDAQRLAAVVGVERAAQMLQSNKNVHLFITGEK
The gist of the method: as §1

As for `Nc1ncnc2c1ncn2[C@@H]1O[C@H](COP(=O)(O)OP(=O)(O)OP(=O)(O)O)[C@@H](O)[C@H]1O` [adenosine triphosphate], the NP40-soluble protein abundance in assay [1] (concentration: 1mM) was 0.98 ± 0.025; in assay [1] (concentration: 2mM) it was 0.994 ± 0.033; in assay [1] (concentration: 4mM), 0.975 ± 0.055; in assay [1] (concentration: 6mM), 0.984 ± 0.038; in assay [1] (concentration: 8mM), 0.955 ± 0.042; in assay [1] (concentration: 10mM), 0.956 ± 0.043. The NP40-soluble protein abundance turned out to be 0.92 ± 0.059 with UniProt Q5VST6 (concentration: 1mM); 0.969 ± 0.083 with UniProt Q5VST6 (concentration: 2mM); 0.915 ± 0.022 in the assay with UniProt Q5VST6 (concentration: 4mM); 0.831 ± 0.13 with UniProt Q5VST6 (concentration: 6mM); 0.908 ± 0.021 with UniProt Q5VST6 (concentration: 8mM); 0.963 ± 0.024 with UniProt Q5VST6 (concentration: 10mM). Also, the NP40-soluble protein abundance in the assay with UniProt Q5W0B1 (concentration: 1mM) was determined as 0.866 ± 0.036; with UniProt Q5W0B1 (concentration: 2mM), 0.866 ± 0.04; with UniProt Q5W0B1 (concentration: 4mM), 0.922 ± 0.046; with UniProt Q5W0B1 (concentration: 6mM) it was 0.998 ± 0.11; in the assay with UniProt Q5W0B1 (concentration: 8mM) it was 0.976 ± 0.057; with UniProt Q5W0B1 (concentration: 10mM), 0.993 ± 0.034. Also, the NP40-soluble protein abundance in the assay with UniProt Q68CQ4 (concentration: 1mM) was found to be 1.05 ± 0.086; with UniProt Q68CQ4 (concentration: 2mM) it was 1.05 ± 0.064; in the assay with UniProt Q68CQ4 (concentration: 4mM), 1.08 ± 0.045; in the assay with UniProt Q68CQ4 (concentration: 6mM), 1.05 ± 0.086; with UniProt Q68CQ4 (concentration: 8mM), 1.08 ± 0.063; with UniProt Q68CQ4 (concentration: 10mM), 1.08 ± 0.06.
